Experimental data from publication PMC12135372.
These are yes or no findings as the source states them, for the method shown. A result given as binding can be weak or reduced; the word gives no strength. For some assays here: Binding seen in cells or lysates may run through a third protein. For some assays here: Where a sequence is shown, tags or fusion partners need not be part of it.

Experiments:
[1] = biological target: T1, Danio rerio DDX1, full length, His6-MBP fusion (subunit of Dr-tRNA-LC-FL) (Danio rerio) (UniProt F1R2L8); test: co-expression and co-purification (Ni affinity chromatography, then gel filtration); all five subunits co-expressed in Sf9 cells; complex captured on a HisTrap column via His6-MBP-DDX1, tag removed with TEV, Superose 6 Increase gel filtration; 25 mM Hepes pH 7.5, 150 mM NaCl, 5% glycerol
T1 sequence: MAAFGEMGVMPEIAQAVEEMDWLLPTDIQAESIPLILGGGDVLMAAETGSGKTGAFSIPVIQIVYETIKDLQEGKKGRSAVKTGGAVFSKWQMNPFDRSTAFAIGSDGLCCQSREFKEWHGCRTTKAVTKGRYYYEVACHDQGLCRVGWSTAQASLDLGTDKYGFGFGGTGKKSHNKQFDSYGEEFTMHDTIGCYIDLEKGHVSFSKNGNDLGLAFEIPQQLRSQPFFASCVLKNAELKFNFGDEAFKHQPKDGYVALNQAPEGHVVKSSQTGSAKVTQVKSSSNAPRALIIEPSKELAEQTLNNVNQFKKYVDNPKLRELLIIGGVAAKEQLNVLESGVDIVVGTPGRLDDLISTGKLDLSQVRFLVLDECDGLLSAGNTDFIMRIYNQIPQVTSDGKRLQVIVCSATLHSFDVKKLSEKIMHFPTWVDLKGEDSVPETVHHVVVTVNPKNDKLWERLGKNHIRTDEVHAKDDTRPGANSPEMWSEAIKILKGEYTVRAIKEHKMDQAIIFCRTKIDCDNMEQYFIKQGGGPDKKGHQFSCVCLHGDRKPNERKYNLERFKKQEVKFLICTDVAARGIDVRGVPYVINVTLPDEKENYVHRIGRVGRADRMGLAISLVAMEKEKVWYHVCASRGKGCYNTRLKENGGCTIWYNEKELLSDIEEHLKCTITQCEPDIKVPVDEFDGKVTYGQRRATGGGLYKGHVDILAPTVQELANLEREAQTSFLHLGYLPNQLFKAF

[2] = biological target: T2, Danio rerio CGI99 (subunit of Dr-tRNA-LC, FL and TR forms) (Danio rerio) (UniProt Q7ZUH1); test: cryo-EM structure; Dr-tRNA-LC-TR at 0.95 mg/ml with 2 mM MnCl2, 2 mM GTP and twofold molar excess of tRNAIle (RNA not seen in the map); 3.3 Å reconstruction, atomic model built; both purified
T2 sequence: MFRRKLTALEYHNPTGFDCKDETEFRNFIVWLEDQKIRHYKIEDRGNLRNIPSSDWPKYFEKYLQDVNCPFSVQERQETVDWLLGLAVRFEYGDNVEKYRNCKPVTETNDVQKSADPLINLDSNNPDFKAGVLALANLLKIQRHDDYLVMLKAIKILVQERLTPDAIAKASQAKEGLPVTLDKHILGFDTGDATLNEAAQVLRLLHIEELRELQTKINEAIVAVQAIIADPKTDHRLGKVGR

binding [1]	binding [2]	Substance
binds		Danio rerio ASHWIN, full length (subunit of Dr-tRNA-LC-FL)
	binds	Danio rerio ASHWIN N-terminal part, residues 1-83 (subunit of Dr-tRNA-LC-TR) (domain or fragment)
